Test results taken from publication PMC12649549, “Sequence Permutation Generated Lysine and Tryptophan-Rich Antimicrobial Peptides with Enhanced Therapeutic Index” (Antibiotics, 2025).

Experiment: Circular dichroism, helical content
Format: physicochemical
Settings: 60 μM peptide, CD, calculated with BeStSel
[1] = 1 mM POPC:Cholesterol LUVs, pH 7.4, 25 °C
[2] = 1 mM POPC:LPS LUVs, pH 7.4, 25 °C
[3] = PBS (20 mM phosphate buffer), pH 7.4, 25 °C

Substance	Helical Content % [1] [%]	Helical Content % [2] [%]	Helical Content % [3] [%]	Helical Content % (TFE (30% TFE buffer), 25 °C) [%]
Ac-LKWLAKKKKWRKW-NH2 [Peptide W5K06]	8.7	5.9	12.2	35.1
Ac-RKWLKWLAKKKKW-NH2 [Peptide W5K03]	5.9	10.0	12.8	50.2
Ac-KKWRKWLKWLAKK-NH2 [W5K/A9W]	20.4	32.8	16.7	42.0
Ac-LAKKKKWRKWLKW-NH2 [Peptide W5K09]	5.5	8.4	5.3	15.6
Ac-AKKKKWRKWLKWL-NH2 [Peptide W5K10]	8.7	11.1	11.4	20.3
Ac-KKKWRKWLKWLAK-NH2 [Peptide W5K12]	5.3	6.8	16.7	47.7
Ac-KWLAKKKKWRKWL-NH2 [Peptide W5K07]	8.2	8.6	6.2	23.2
Ac-WLKWLAKKKKWRK-NH2 [Peptide W5K05]	4.5	10.8	12.2	58.6
Ac-WLAKKKKWRKWLK-NH2 [Peptide W5K08]	12.3	3.9	2.6	42.9
Ac-KKKKWRKWLKWLA-NH2 [Peptide W5K11]	8.8	38.0	15.3	35.0
Ac-WRKWLKWLAKKKK-NH2 [Peptide W5K02]	30.4	35.5	38.9	59.0
Ac-KWLKWLAKKKKWR-NH2 [Peptide W5K04]	10.6	7.5	25.7	53.8
Ac-KWRKWLKWLAKKK-NH2 [Peptide W5K01]	62.3	35.8	39.5	54.8
